Laboratory results: patent US20260256761A1, “COMPOSITIONS AND METHODS FOR THE IDENTIFICATION OF INHIBITORS OF AND TREATMENT FOR ECTOPIC CALCIFICATION” (UNIVERSITY OF PITTSBURGH-OF THE COMMONWEALTH SYSTEM OF …, priority 2022, published 2026)
No constants are given. Whether binding was seen depends on the method and setting. For part of these data: In cells and extracts the contact can be indirect. Some results given as binding are weak or reduced against the parent protein; the word gives no strength.

Sequences of proteins named here, by UniProt entry; tags and fusion partners are left off. A change or cut given only in a name is not applied to a line headed by its entry.
UniProt P42229: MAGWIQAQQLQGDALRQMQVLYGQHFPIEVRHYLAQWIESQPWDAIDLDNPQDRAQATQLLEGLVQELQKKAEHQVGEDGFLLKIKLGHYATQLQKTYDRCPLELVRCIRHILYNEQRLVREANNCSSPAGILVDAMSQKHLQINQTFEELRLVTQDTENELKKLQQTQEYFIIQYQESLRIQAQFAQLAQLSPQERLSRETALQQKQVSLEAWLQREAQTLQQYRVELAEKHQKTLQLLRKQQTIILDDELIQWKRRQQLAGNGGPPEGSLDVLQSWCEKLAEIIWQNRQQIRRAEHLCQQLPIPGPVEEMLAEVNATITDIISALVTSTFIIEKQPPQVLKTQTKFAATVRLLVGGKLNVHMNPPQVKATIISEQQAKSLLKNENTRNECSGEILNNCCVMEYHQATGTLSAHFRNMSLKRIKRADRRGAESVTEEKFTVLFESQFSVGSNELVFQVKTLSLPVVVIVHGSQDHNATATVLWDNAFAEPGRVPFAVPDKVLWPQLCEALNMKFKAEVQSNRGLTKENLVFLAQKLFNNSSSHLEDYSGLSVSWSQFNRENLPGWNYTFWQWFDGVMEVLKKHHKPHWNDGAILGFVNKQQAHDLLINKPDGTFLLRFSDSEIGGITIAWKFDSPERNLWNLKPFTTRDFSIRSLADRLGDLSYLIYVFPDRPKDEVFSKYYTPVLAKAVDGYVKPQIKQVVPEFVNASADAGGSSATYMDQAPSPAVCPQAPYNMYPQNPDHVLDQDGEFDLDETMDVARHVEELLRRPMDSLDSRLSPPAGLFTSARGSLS
UniProt O14746: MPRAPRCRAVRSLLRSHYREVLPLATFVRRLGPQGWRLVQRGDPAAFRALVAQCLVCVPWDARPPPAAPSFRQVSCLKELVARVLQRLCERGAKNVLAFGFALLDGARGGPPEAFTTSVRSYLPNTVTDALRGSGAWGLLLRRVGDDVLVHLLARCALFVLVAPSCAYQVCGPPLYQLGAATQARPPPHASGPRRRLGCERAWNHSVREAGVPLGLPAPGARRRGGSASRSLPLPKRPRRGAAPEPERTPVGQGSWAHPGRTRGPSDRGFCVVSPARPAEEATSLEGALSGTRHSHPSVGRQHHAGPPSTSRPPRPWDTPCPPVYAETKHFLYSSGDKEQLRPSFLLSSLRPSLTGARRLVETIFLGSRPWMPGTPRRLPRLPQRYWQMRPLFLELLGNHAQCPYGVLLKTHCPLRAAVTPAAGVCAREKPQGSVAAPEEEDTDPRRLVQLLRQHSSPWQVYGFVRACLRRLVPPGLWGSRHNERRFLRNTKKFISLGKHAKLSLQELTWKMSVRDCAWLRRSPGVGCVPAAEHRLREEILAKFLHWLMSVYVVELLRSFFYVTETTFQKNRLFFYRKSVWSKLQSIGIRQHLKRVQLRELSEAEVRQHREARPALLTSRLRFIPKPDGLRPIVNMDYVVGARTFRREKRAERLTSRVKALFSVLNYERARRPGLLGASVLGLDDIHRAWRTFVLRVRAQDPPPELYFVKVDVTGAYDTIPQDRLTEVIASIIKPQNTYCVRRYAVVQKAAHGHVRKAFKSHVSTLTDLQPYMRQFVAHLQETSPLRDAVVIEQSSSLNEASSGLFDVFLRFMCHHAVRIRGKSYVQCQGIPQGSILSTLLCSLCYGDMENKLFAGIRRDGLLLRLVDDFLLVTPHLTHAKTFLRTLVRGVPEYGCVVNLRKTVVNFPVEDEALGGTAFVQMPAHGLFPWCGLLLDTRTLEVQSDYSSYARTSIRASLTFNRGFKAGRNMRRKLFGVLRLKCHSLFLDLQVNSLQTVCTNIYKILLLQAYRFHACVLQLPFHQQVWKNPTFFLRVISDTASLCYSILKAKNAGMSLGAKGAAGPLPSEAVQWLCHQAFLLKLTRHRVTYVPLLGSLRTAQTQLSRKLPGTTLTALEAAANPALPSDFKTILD

How the values were obtained:
[1] = biological target: Signal Transducer and Activator of Transcription 5A/B (STAT5), endogenous human (human) (UniProt P42229); assay: proximity ligation assay in fixed CAVD AVICs
[2] = biological target: Signal Transducer and Activator of Transcription 5A/B (STAT5), endogenous human (human) (UniProt P42229); assay: proximity ligation assay (<40 nm) in fixed human AVICs, control and CAVD, 21 days in osteogenic medium
[3] = biological target: Signal Transducer and Activator of Transcription 5A/B (STAT5), endogenous human (human) (UniProt P42229); assay: proximity ligation assay in fixed control AVICs
[4] = biological target: Signal Transducer and Activator of Transcription 5A/B (STAT5), endogenous human (human) (UniProt P42229); assay: discussion summing up the PLA and ChIP results in AVICs
[5] = biological target: Signal Transducer and Activator of Transcription 5A/B (STAT5), endogenous human (human) (UniProt P42229); assay: discussion summing up the PLA results in AVICs
[6] = biological target: Signal Transducer and Activator of Transcription 5A/B (STAT5), endogenous human (human) (UniProt P42229); assay: co-immunoprecipitation of endogenous proteins from hVICs in NT or OST media for ten days

Measured: binding

Telomerase reverse transcriptase (TERT), endogenous human (from UniProt O14746 1-1132) (enzyme)
binds: all assays above
